These are yes or no findings as the source states them, for the method shown. In cells and extracts the contact can be indirect. Here binding means that the protein was enriched with, or labelled near, the bait; the list need not be complete. Sequences can lack the tags named with a protein.
B1: Yippee family protein (At5g53940) (protein, UniProt Q9FN32 1-129)
chain: MGRIFTVELEGRSYRCRFCRTHLALPDDLVSRSFHCRRGKAYLFNRSVNISMGPLEERLMLSGMHTVADIFCCCCGQNVGWKYESAHEKAQKYKEGKFVLERGRIVDEIDLSTEVYIDTHGSTSDTEDS
B2: Transducin/WD40 domain-containing protein (At5g08560) (protein, UniProt Q9FNN2 1-589)
chain: MGVVEDTEPPLKRAKRLADEPNGFSANSSVRGSSVNSNSLGDLMARPLPSQGDDETIGSKGVIRKSEFVRIITRALYSLGYDKTGAMLEEESGISLHNSTIKLFLQQVKDGKWDQSVKTLHRIGFPDEKAVKAASFLLLEQKFLEFLKVEKIADALRTLRNEMAPLRINTKRVHELASSLISPSSFISHTTSTPGKESVNSRSKVLEELQTLLPASVIIPEKRLECLVENSLHIQRDSCVFHNTLDSDLSLYSDHQCGKHQIPSQTAQILESHTDEVWFLQFSHNGKYLASSSKDQTAIIWEISADGHISLKHTLVGHHKPVIAILWSPDDRQVLTCGAEEVIRRWDVDSGDCVHMYEKGGISPISCGWYPDGQGIIAGMTDRSICMWDLDGREKECWKGQRTQKVSDIAMTDDGKWLVSVCKDSVISLFDREATVERLIEEEDMITSFSLSNDNKYILVNLLNQEIRLWNIEGDPKIVSRYKGHKRSRFIIRSCFGGYKQAFIASGSEDSQVYIWHRSTGKLIVELPGHAGAVNCVSWSPTNLHMLASASDDGTIRIWGLDRINQQNQKKKLVQGSSSNGVIHRCNGN
B3: LisH/CRA/RING-U-box domain-containing protein (At3g55070) (protein, UniProt Q9M2V9 1-418)
chain: MEIDSATNGNSDTVMTESAATITPSPVVVSSSRSNQFTESLKLEHQLLRVPFEHYKKTIRTNHRSFEKEVSTIVNGVGELADSDWSKDDTVSRLTCLVTRLQGLKRKLEEGSNVENLQAQRCRARIDHLDSVDVENITEWNNTKLKRILVDYMLRMSYFETATKLSESSNIMDLVDIDIFREAKKVIDALKNREVASALTWCADNKTRLKKSKSKFEFQLRLQEFIELVRVDTAESYKKAIQYARKHLASWGTTHMKELQHVLATLAFKSTTECSKYKVLFELRQWDVLVDQFKQEFCKLYGMTMEPLLNIYLQAGLSALKTPYGLEEGCTKEDPLSQENFRKLALPLPFSKQHHSKLVCYISKELMDTENPPQVLPNGYVYSTKALKEMAEKNGGKITCPRTGLVCNYTELVKAYIS
B4: LisH/CRA/RING-U-box domain-containing protein (At4g37880) (protein, UniProt Q9T075 1-388)
chain: MELKSIKDAFDRVATKQKLSYSKTNEIVHMLSQEIDKALSILEETPSSDTMLLDHRSILADVKKVFMEIAPITQLEATEKELHAALTKYPKVLEKQLNPDISKAYRHNVEFDTHIVNQIIANFFYRQGMFDIGDCFVAETGESECSTRQSFVEMYRILEAMKRRDLEPALNWAVSNSDKLKEARSDLEMKLHSLHFLEIARGKNSKEAIDYARKHIATFADSCLPEIQKLMCSLLWNRKLDKSPYSEFLSPALWNNAVKELTRQYCNLLGESSESPLSITVTAGTQALPVLLKYMNVVMANKKLDWQTMEQLPVDAQLSEEFQFHSVFVCPVSKEQSSDDNPPMMMSCGHVLCKQTINKMSKNGSKSSFKCPYCPTDVDISRCRQLHF
B5: Transducin/WD40 domain-containing protein (At5g43920) (protein, UniProt Q9FND4 1-523)
chain: MENGLWEVLGSKGLLKKHEFIRILVQCLYSLGFKNSASCLEFESKILYKTADSEFLEKQVLSGNWDSCVQVLDRIFDNSMDDTRNTALYLVFKQCLLEYLKRGDVSLALNVLRKQAPLLRMGKEKIHRLACDIVYSKEMESGEVDNCLVLDLRRKLLVELEKLIPLPIVIPERRLEHLVETAVMDQIDTCMYHNSCDAVSLYKDHCCGRDQIPSETVQILVAHKNEVWFVQFSNSGKYLATASSDCTAIIWKVLDDNKVELKHTLESHQNPVSFVSWSPDDTKLLTCGNAEVLKLWDVDTGVLRHTFGNNNTGFTVSSCAWFPDSTRLVCGSSDPERGIVMWDTDGNEIKAWRGTRIPKVVDLAVTPDGESMITVFSDKEIRILNLETKVERVISEEQPITSLSISGDGKFFIVNLSCQEIHLWDLAGEWKQPLKFSGHRQSKYVIRSCFGGLDSSFIASGSEDSQVYIWNLKNTKPLEVLSGHSMTVNCVSWNPKNPRMLASASDDQTIRIWGPGKPNKPLN

Target: T1, GFP-AtRanBPM (Arabidopsis homologue of RanBPM, At1g35470, N-terminal GFP fusion) (Arabidopsis thaliana) (UniProt F4HYD7)
T1 sequence: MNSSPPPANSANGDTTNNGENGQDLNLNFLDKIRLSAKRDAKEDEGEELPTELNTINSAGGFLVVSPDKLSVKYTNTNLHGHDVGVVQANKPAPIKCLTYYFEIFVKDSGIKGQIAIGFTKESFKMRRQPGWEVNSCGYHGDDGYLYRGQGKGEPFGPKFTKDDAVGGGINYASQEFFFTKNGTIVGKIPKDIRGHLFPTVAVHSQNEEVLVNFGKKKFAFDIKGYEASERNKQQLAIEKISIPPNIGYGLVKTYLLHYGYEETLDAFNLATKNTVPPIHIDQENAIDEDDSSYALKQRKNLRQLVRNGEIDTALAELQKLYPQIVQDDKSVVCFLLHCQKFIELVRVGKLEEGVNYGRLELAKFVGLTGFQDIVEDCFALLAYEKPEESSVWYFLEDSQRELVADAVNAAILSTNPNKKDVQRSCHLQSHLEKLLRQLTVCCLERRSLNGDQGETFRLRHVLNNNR
Assay: affinity purification with mass spectrometry; GFP-AtRanBPM immunopurified on GFP-Trap_A beads from S20 extracts (~4 mg protein/mL) of Arabidopsis cultured cells, used directly or solubilized by 1% NP-40 for 1 h at 4 °C; silver-stained SDS-PAGE bands analysed by MALDI-MS, or eluates by …; GFP immunopurification from wild type Ler culture as negative control

binding, binds:
B1
B2
B3
B4
B5

Target: T1, GFP-AtRanBPM (Arabidopsis homologue of RanBPM, At1g35470, N-terminal GFP fusion) (Arabidopsis thaliana)
Assay: as above
Remark: another data set of the same source

binding, binds:
Armadillo-repeat-containing protein (At3g08947)
Yippee-like protein (At3g08890)

— publication PMC3464593
